We go through three substances from PMC5400601.

Sequences of proteins named here, by UniProt entry; tags and fusion partners are left off.
UniProt Q92466: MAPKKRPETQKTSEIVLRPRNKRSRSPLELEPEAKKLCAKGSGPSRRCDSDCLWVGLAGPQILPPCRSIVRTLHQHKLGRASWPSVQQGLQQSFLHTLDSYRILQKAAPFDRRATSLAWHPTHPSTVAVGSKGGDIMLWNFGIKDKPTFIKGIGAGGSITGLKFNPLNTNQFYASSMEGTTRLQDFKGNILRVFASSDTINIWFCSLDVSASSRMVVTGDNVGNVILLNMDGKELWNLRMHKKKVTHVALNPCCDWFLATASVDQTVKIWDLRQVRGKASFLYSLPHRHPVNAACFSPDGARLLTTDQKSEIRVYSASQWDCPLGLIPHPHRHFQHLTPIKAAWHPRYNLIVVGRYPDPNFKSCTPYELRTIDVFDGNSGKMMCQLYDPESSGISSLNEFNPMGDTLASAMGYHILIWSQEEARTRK
UniProt P10275: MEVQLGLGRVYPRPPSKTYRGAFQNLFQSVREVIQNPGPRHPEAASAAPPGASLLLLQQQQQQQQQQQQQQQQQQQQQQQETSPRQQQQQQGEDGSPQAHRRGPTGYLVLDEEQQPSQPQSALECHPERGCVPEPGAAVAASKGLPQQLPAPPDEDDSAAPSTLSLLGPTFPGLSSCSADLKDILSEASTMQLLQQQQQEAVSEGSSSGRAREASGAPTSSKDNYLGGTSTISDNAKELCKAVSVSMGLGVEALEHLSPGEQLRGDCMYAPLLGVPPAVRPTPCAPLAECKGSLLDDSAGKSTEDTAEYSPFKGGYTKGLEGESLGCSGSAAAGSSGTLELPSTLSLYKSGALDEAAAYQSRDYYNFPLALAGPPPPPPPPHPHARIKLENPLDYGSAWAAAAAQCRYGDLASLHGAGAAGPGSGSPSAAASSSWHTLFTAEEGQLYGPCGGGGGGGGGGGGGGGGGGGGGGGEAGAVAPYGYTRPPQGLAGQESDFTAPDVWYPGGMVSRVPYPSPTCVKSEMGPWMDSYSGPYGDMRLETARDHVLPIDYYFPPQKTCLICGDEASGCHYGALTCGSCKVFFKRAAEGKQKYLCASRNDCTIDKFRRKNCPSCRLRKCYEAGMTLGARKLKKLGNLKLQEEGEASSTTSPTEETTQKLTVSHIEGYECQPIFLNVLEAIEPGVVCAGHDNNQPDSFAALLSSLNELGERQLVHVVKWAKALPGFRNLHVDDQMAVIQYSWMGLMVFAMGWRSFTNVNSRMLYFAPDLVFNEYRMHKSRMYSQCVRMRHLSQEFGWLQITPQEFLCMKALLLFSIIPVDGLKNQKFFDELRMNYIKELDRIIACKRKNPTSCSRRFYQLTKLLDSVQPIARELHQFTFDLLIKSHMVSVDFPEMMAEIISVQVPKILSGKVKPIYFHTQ

Results are given in words; binding and its absence hold for the method and conditions named. In cells and extracts the contact can be indirect. Some binding calls cover weakened binding; strength is not graded here.

Experiment [1] deals with GST-DDB2 (UniProt Q92466). As to the kind of experiment: pull-down; HA-AR-FL and HA-AR mutants incubated with GST-DDB2, GST pull-down, western blotting.
Experiment [2] deals with GST-DDB2 (UniProt Q92466). Description: pull-down; in vitro competition: GST-DDB2 produced from bacteria incubated with AR protein and various amounts of NRIP, GST pull-down.
The next experiment addresses AR (UniProt P10275). Description: co-IP; competition: 293T cells (legend; text: LNCaP) cotransfected with AR or HA-AR, Myc-DDB2 and FLAG-NRIP (increasing amounts) or FLAG-NRIP-DM; immunoprecipitation with anti-AR antibodies 48 h after transfection, western blotting.
The next experiment has as its target HA-AR-FL (UniProt P10275). The description is as above.

With “HA-AR-FL (from UniProt P10275 1-920) (receptor)”, in the experiment with GST-DDB2 [1], the binding result is “binds”.
For “AR protein (from UniProt P10275 1-920) (receptor)”, the binding result with GST-DDB2 [2] is reported as “binds”.
“Myc-tagged DDB2 (from UniProt Q92466 1-427)”: the binding entry in the experiment with AR and with HA-AR-FL was “binds” each time.
